Laboratory results as given in article doi:10.1101/2023.03.07.531462.
No constants are given. Whether binding was seen depends on the method and setting. In cells and extracts the contact can be indirect. Here binding means that the protein was enriched with, or labelled near, the bait; the list need not be complete.

These substances were tested against TbMsp1-HA (in situ C-terminally triple HA-tagged TbMsp1) (Trypanosoma brucei) (UniProt Q57W41) (assay: affinity purification with mass spectrometry).

Substance | binding
POMP19, endogenous (from UniProt Q38CI9) | binds
TbJ31, endogenous (from UniProt Q57VU5) | binds
TbTsc13, endogenous (from UniProt Q57ZC7) | binds
cytosolic fumarate hydratase (Tb927.3.4500) (from UniProt Q580J2) (enzyme) | binds
glycosomal metabolite transporter GAT1 (Tb927.4.4050) (from UniProt Q57Y09) | binds
glycosomal metabolite transporter GAT2 (Tb927.11.3130) (from UniProt Q386J8) | binds
peroxisome biogenesis protein Pex11 (Tb927.11.11520) (from UniProt Q383C6) | binds
protein of the mitochondrial OM proteome 31 (POMP31), endogenous (from UniProt Q585W6) | binds
